{"source": "PubChem BioAssay AID256", "about": "(DTP/NCI, 2004)", "system": "CD2F1 mice, L1210 leukemia ip, survival T/C", "test": "NCI In Vivo Anticancer Drug Screen. Data for tumor model L1210 Leukemia (intraperitoneal) in CD2F1 (CDF1) mice", "conditions": "higher T/C = longer survival", "method_in_brief": "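Antitumor effect is scored in animals hosting a serially transplanted tumor. Values compare compound-dosed animals against vehicle-only controls as a simple quotient.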", "key": {"[1]": {"conditions": "T/C endpoint: mean survival time, dose: 100.0 mg/kg/injection, schedule: Q04DX002 (ip), vehicle: saline with Tween-80"}, "[2]": {"conditions": "T/C endpoint: mean survival time, dose: 200.0 mg/kg/injection, schedule: Q04DX002 (ip), vehicle: saline with Tween-80"}, "[3]": {"conditions": "T/C endpoint: mean survival time, dose: 400.0 mg/kg/injection, schedule: Q04DX002 (ip), vehicle: saline with Tween-80"}}, "note": "The list does not hold the whole screen: it is rich in T/C values a quarter to a half above the control, in often repeated tests (any T/C) and in doses without a T/C. Further doses and runs are listed elsewhere. T/C: endpoint of the treated group in % of that of the vehicle group. Some entries give survivors of the animals treated and no T/C: the source holds a T/C of zero for them, seemingly a mark for toxic or unscored doses. Some survivor counts are full or nearly so, which does not show that the dose was tolerated: survival well below the control is almost never listed, so the zero probably covers shortened survival too. Survivors were counted at the toxicity check, usually on the fifth day, unless a day is given; later deaths do not show. Schedule codes are those of the source, read here as Q, the interval in days (D) or hours (H), X, the number of doses. Where survival is the endpoint, this PubChem deposit counts one and a half times the control or more as active, and values a quarter to a half above the control carry no call in these data; other NCI protocols may use other cut-offs. Some entries hold several experiments; the values are given in rising order."}
{"smiles": "[Pt+2].[S-]c1ccccc1.[S-]c1ccccc1.c1ccc([PH+](c2ccccc2)c2ccccc2)cc1.c1ccc([PH+](c2ccccc2)c2ccccc2)cc1", "values": [{"measurement": "survivor count", "setting": "T/C endpoint: mean survival time, dose: 200.0 mg/kg/injection, schedule: Q04DX003 (sc), vehicle: distilled water + Tween-80", "result": "6 of 6"}]}
{"smiles": "COc1ccc(NC(=O)Nc2ccc(C)c([N+](=O)[O-])c2)c(OC)c1", "values": [{"measurement": "survivor count", "setting": "T/C endpoint: mean survival time, dose: 100.0 mg/kg/injection, schedule: Q01DX009 (ip), vehicle: saline with Tween-80", "result": "3 of 3"}, {"measurement": "survivor count", "setting": "T/C endpoint: mean survival time, dose: 200.0 mg/kg/injection, schedule: Q01DX009 (ip), vehicle: saline with Tween-80", "result": "3 of 3"}]}
{"smiles": "O=C1c2ccccc2C(=O)c2c(NCCNCCNCCO)ccc(NCCNCCNCCO)c21", "values": [{"measurement": "survivor count", "setting": "T/C endpoint: mean survival time, dose: 128.0 mg/kg/injection, schedule: Q01DX009 (ip), vehicle: acid diluted with saline", "result": "3 of 6"}]}
{"smiles": "Nc1nc(N)c2cc(CCc3ccc(C(=O)NC(CCC(=O)O)C(=O)O)cc3)ccc2n1", "note": "(centres undefined)", "values": [{"measurement": "T/C", "setting": "T/C endpoint: mean survival time, dose: 0.08 mg/kg/injection, schedule: Q01DX009 (ip), vehicle: Klucel (hydroxypropylcellulose) (HPC)", "result": "133 % of control"}, {"measurement": "T/C", "setting": "T/C endpoint: mean survival time, dose: 0.16 mg/kg/injection, schedule: Q01DX009 (ip), vehicle: Klucel (hydroxypropylcellulose) (HPC)", "result": "132 % of control"}, {"measurement": "survivor count", "setting": "T/C endpoint: mean survival time, dose: 0.63 mg/kg/injection, schedule: Q01DX009 (ip), vehicle: Klucel (hydroxypropylcellulose) (HPC)", "result": "6 of 6"}, {"measurement": "survivor count", "setting": "T/C endpoint: mean survival time, dose: 1.25 mg/kg/injection, schedule: Q01DX009 (ip), vehicle: Klucel (hydroxypropylcellulose) (HPC)", "result": "5 of 6"}]}
{"smiles": "NC(=S)N/N=C/c1ccc(C(F)(F)F)cn1", "values": [{"measurement": "T/C", "setting": "T/C endpoint: mean survival time, dose: 30.0 mg/kg/injection, schedule: Q01DX009 (ip), vehicle: saline with Tween-80", "result": "137 % of control"}, {"measurement": "survivor count", "setting": "T/C endpoint: mean survival time, dose: 45.0 mg/kg/injection, schedule: Q01DX009 (ip), vehicle: Klucel (hydroxypropylcellulose) (HPC)", "result": "1 of 6"}, {"measurement": "T/C", "setting": "T/C endpoint: mean survival time, dose: 50.0 mg/kg/injection, schedule: Q04DX002 (ip), vehicle: saline with Tween-80", "result": "143 % of control"}, {"measurement": "survivor count", "setting": "T/C endpoint: mean survival time, dose: 67.5 mg/kg/injection, schedule: Q01DX009 (ip), vehicle: Klucel (hydroxypropylcellulose) (HPC)", "result": "0 of 6"}, {"measurement": "survivor count", "setting": "T/C endpoint: mean survival time, dose: 67.5 mg/kg/injection, schedule: Q01DX009 (ip), vehicle: saline with Tween-80", "result": "3 of 10"}, {"measurement": "T/C", "setting": "[1]", "result": "149 % of control"}, {"measurement": "survivor count", "setting": "[1]", "result": "1 of 3"}, {"measurement": "survivor count", "setting": "[2]", "result": "0 of 3"}, {"measurement": "survivor count", "setting": "[3]", "result": "0 of 3"}]}
{"smiles": "CN(C)N=Nc1ccccc1C(=O)NCC#N", "values": [{"measurement": "T/C", "setting": "T/C endpoint: mean survival time, dose: 75.0 mg/kg/injection, schedule: Q01DX009 (ip), vehicle: Klucel (hydroxypropylcellulose) (HPC)", "result": "127 % of control"}, {"measurement": "survivor count", "setting": "T/C endpoint: mean survival time, dose: 150.0 mg/kg/injection, schedule: Q01DX009 (ip), vehicle: Klucel (hydroxypropylcellulose) (HPC)", "result": "0 of 6"}, {"measurement": "survivor count", "setting": "T/C endpoint: mean survival time, dose: 300.0 mg/kg/injection, schedule: Q01DX009 (ip), vehicle: Klucel (hydroxypropylcellulose) (HPC)", "result": "0 of 6"}]}
{"smiles": "O=C(O)c1cc(C(=O)O)c(C(=O)O)cc1C(=O)O.[NH2-].[NH2-].[NH2-].[NH2-].[Pt+2].[Pt+2]", "values": [{"measurement": "T/C", "setting": "T/C endpoint: mean survival time, dose: 0.78 mg/kg/injection, schedule: Q04DX003 (ip), vehicle: water", "result": "128 and 131 % of control"}, {"measurement": "survivor count", "setting": "T/C endpoint: mean survival time, dose: 3.12 mg/kg/injection, schedule: Q04DX003 (ip), vehicle: distilled water + Tween-80", "result": "6 of 6"}, {"measurement": "survivor count", "setting": "T/C endpoint: mean survival time, dose: 6.25 mg/kg/injection, schedule: Q04DX003 (ip), vehicle: distilled water + Tween-80", "result": "6 of 6"}, {"measurement": "survivor count", "setting": "T/C endpoint: mean survival time, dose: 12.5 mg/kg/injection, schedule: Q04DX003 (ip), vehicle: distilled water + Tween-80", "result": "0 of 6"}, {"measurement": "survivor count", "setting": "T/C endpoint: mean survival time, dose: 25.0 mg/kg/injection, schedule: Q04DX003 (ip), vehicle: distilled water + Tween-80", "result": "0 of 6"}, {"measurement": "survivor count", "setting": "T/C endpoint: mean survival time, dose: 50.0 mg/kg/injection, schedule: Q04DX003 (ip), vehicle: distilled water + Tween-80", "result": "0 of 6"}, {"measurement": "survivor count", "setting": "T/C endpoint: mean survival time, dose: 100.0 mg/kg/injection, schedule: Q04DX003 (ip), vehicle: distilled water + Tween-80", "result": "0 of 6"}, {"measurement": "survivor count", "setting": "T/C endpoint: mean survival time, dose: 200.0 mg/kg/injection, schedule: Q04DX003 (ip), vehicle: distilled water + Tween-80", "result": "0 of 6"}, {"measurement": "T/C", "setting": "T/C endpoint: median survival time, dose: 16.0 mg/kg/injection, schedule: Q01DX009 (ip), vehicle: water", "result": "125 % of control"}, {"measurement": "survivor count", "setting": "T/C endpoint: median survival time, dose: 64.0 mg/kg/injection, schedule: Q01DX009 (ip), vehicle: water", "result": "0 of 6"}]}
{"smiles": "CN(C)c1nc(-c2ccncc2)nc(N2CCOCC2)n1", "values": [{"measurement": "survivor count", "setting": "[2]", "result": "1 of 3"}, {"measurement": "survivor count", "setting": "[3]", "result": "0 of 3"}]}
{"smiles": "O=C(NO)Nc1ccccc1", "values": [{"measurement": "survivor count", "setting": "T/C endpoint: mean survival time, dose: 140.0 mg/kg/injection, schedule: Q03HX024 (ip), vehicle: saline with Tween-80", "result": "6 of 8"}, {"measurement": "survivor count", "setting": "T/C endpoint: mean survival time, dose: 210.0 mg/kg/injection, schedule: Q03HX024 (ip), vehicle: saline with Tween-80", "result": "6 of 8"}]}
